This is an account of results in article PMC7819943, “Rice protein-binding microarrays: a tool to detect cis-acting elements near promoter regions in rice”.

By UniProt entry, the sequences of proteins in these tests, tags left out.
UniProt Q0JBA9, entry or part of it: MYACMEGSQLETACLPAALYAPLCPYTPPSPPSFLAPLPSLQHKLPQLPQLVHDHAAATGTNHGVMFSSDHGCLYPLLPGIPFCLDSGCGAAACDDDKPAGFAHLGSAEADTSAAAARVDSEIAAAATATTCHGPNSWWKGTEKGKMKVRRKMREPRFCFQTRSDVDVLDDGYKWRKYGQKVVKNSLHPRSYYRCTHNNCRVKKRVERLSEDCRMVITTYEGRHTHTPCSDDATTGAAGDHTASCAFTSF

The other results are listed elsewhere or left out.

In this experiment the target is OsWRKY34 (Oryza sativa, UniProt Q0JBA9 1-250). Kind of experiment: protein-binding microarray (RPBM); PBS, 2% BSA, 51.3 ng/ul salmon testes DNA, 50 uM zinc acetate, 200 nM TF, 25 C, 1 h; high values mean tight binding. The conditions noted are these: protein: recombinant; tags: N-terminal polyhistidine and DsRed monomer fusion (pET32a); label: CyDye5-dUTP incorporated in the synthesized complementary strand; 3' TTTTT single-stranded linker to array surface; dsDNA, one strand shown. The method in brief:
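Transcription factors were made in E. coli BL21-CodonPlus as N-terminal fusions to a polyhistidine tag and DsRed, then purified on Ni–NTA. After primer extension with Cy5-dUTP and blocking with 2% BSA, a custom Agilent array was exposed for 1 h at 25 °C to 200 nM protein in PBS, 2% BSA, salmon testes DNA and 50 µM zinc acetate. Washed arrays were scanned on an Axon 4000B, and the binding signal is per-feature fluorescence intensity in arbitrary units.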
Turning to “CGCTGTAGGTTTCCCATTCCCGCCGCCGCCGCCACCGACGCGGAGTCACCTAGTGCAG”, the binding signal is 9740 fluorescence intensity (a.u.). Next, “GAGCGAGGAACCCGGATCGATCCGGGCTGGGTGGGTGGGGCGGAGTCACCTAGTGCAG”: 12500 fluorescence intensity (a.u.); “GAGCGCGGAGAGCATCCCACACCACCCGTCCCATCGCAATCGGAGTCACCTAGTGCAG”: 10400 fluorescence intensity (a.u.); “TAAGTCCCAACCTGTATCCGTCCCCACCTGTCAGTACTTACGGAGTCACCTAGTGCAG”: 8860 fluorescence intensity (a.u.). The figure for “ACAAGCTCCTTTGTTTCCTACCATATATGCTCTTCACACTCGGAGTCACCTAGTGCAG” is 8730 fluorescence intensity (a.u.). The figure for “AGTCAAAGTGAACTTATTTCCGTGGCGTATATCCCTTATTCGGAGTCACCTAGTGCAG” is 8050 fluorescence intensity (a.u.); for “CAATCCTTTTCTTCTCTTCTTCCTGGTCAAATTTTTCCTACGGAGTCACCTAGTGCAG” it is 8750 fluorescence intensity (a.u.). As to “TTCGATTGATGCTAGAGCACATATTACCTCATATAATTTTCGGAGTCACCTAGTGCAG”, the binding signal was 9130 fluorescence intensity (a.u.).

For the sequence “CCTATTTTTGATGTTCCGGATTTTTTCTTTGCGGCCAAAACGGAGTCACCTAGTGCAG”, the binding signal was 11700 fluorescence intensity (a.u.). In the case of “CCTTCTCCGACGGCCTCCTCGGCTGCTCCTGGCTCATCGTCGGAGTCACCTAGTGCAG”, the binding signal is 8680 fluorescence intensity (a.u.).

For “TCTCTCTAGGATCGCCGCCATCCACCACATCCCACGCTTTCGGAGTCACCTAGTGCAG”, the binding signal is 11800 fluorescence intensity (a.u.). The figure for “AGAACACTTCAGTTCCTCTGTCTACTGTTTTGATGAGATTCGGAGTCACCTAGTGCAG” is 8590 fluorescence intensity (a.u.). For “TTGCCAGGTTCTTTGTCGCTCTGGTAGGTACTTATGTTCACGGAGTCACCTAGTGCAG”, the binding signal is 9160 fluorescence intensity (a.u.). On to “GTTACACACCGTTGCATTCCCGCGTCGTCCGGATCAGCTCCGGAGTCACCTAGTGCAG”, for which the binding signal is 8090 fluorescence intensity (a.u.). Consider “AATTGTGCTGTGGTATACACACTCTCCGCGTTCTGGTCTGCGGAGTCACCTAGTGCAG”, for which the binding signal is 10600 fluorescence intensity (a.u.).

As to “CATCAGGCCCACACACATAAGAAGCGTCATCTACATCGTGCGGAGTCACCTAGTGCAG”, the binding signal is 8590 fluorescence intensity (a.u.). The figure for “AAACCTCGCATGCCAATAGTTGGGAACGCCGGGGCGGGGTCGGAGTCACCTAGTGCAG” is 9340 fluorescence intensity (a.u.); for “GTCTTTATCTCTCCTCTAATTCCTATGTTTTTCCTGCGGTCGGAGTCACCTAGTGCAG” it is 13000 fluorescence intensity (a.u.); for “AAGATTTTTTTCTCTCTTTCTGCATCCAAGTCCAATTTCTCGGAGTCACCTAGTGCAG” it is 8680 fluorescence intensity (a.u.). The figure for “ATCAATCGTTTCACGAGTTCACTGCGCACACTCTCCAAGTCGGAGTCACCTAGTGCAG” is 8160 fluorescence intensity (a.u.); for “GCCGTTTGTTGGTTGGTTACGGCTGCGAGCTTGGGCACCGCGGAGTCACCTAGTGCAG” it is 10300 fluorescence intensity (a.u.). Next, “GTCGACGTGTCCTACTCATCCACGCCACGTAACCAATTCCCGGAGTCACCTAGTGCAG”: 9360 fluorescence intensity (a.u.); “TTTAATCGTTCGTCTTATTTTAAATTTTCAAAAAACAAACCGGAGTCACCTAGTGCAG”: 8080 fluorescence intensity (a.u.); “ATTCTTACGTAGTGGTCCTCTATGTACTGGTATTATTATACGGAGTCACCTAGTGCAG”: 8040 fluorescence intensity (a.u.). In the case of “TAGATGACGCCGTTGATTTTTTTCTCACATATTTGACCATCGGAGTCACCTAGTGCAG”, the binding signal was 10700 fluorescence intensity (a.u.). The figure for “CGCGCGTACGCAACGCAACTGCTCTCAATTCAATCTCGCTCGGAGTCACCTAGTGCAG” is 8940 fluorescence intensity (a.u.); for “TCGCTTCGTTGACCCCTTGCCGTGTTTGGCTCCTCGACGTCGGAGTCACCTAGTGCAG” it is 10700 fluorescence intensity (a.u.); for “AATCGCGCGCCCCTCCCTGCTCTTTCAATCTTTTGCATCACGGAGTCACCTAGTGCAG” it is 9360 fluorescence intensity (a.u.). As to “CCTGAGCTTGAACTGTGTTGGTCTTAATTGTTCCTCATGTCGGAGTCACCTAGTGCAG”, the binding signal was 9780 fluorescence intensity (a.u.). Next, “TTTGTCATGTAGAACTTTGCTTATGGATGCATTATGGTTTCGGAGTCACCTAGTGCAG”: 8530 fluorescence intensity (a.u.). The figure for “ACTCTCATCTCTTGCATCTATATACTCTTAAGCAGTCAGTCGGAGTCACCTAGTGCAG” is 8050 fluorescence intensity (a.u.).

With “ACTCACCCTGAACCACACTGCAGCCGTCCGCCTCCTGCAACGGAGTCACCTAGTGCAG”, the binding signal was 8220 fluorescence intensity (a.u.). As for “CCATTCCTACACGGATATACCAACATTGTTCTAAGCCCATCGGAGTCACCTAGTGCAG”, the binding signal is 9140 fluorescence intensity (a.u.). As for “GGGTAATGCGGTGCCCTTTTTCCCAGCTAGCGAGACCTCTCGGAGTCACCTAGTGCAG”, the binding signal was 8170 fluorescence intensity (a.u.). The figure for “GAGACGGTTCTGGTACTTTGTCCAATCATTTTGTGTCTTGCGGAGTCACCTAGTGCAG” is 10200 fluorescence intensity (a.u.); for “AGTACTAGCTGGCATCGATTGGTTTCTTCCGTGTTCCTTTCGGAGTCACCTAGTGCAG” it is 10800 fluorescence intensity (a.u.). The figure for “ATTCTTTCCATGCATTCGTTGCCTCTCAACTGCACCAGCTCGGAGTCACCTAGTGCAG” is 10800 fluorescence intensity (a.u.); for “CGCTGACATTTCAAATCCCCGGGTACCCATCCGCCGTCCACGGAGTCACCTAGTGCAG” it is 8650 fluorescence intensity (a.u.). Next, “AGGCTTCCAATCTTGTGCTAATCTGCTGGTGAAGTATATGCGGAGTCACCTAGTGCAG”: 8480 fluorescence intensity (a.u.); “GCCTCTCTTTACGCTCGTGCCCACCGCCATGTTGATCTACCGGAGTCACCTAGTGCAG”: 11100 fluorescence intensity (a.u.); “TTTTTGTCTTTTATTGCTTCTTCTCCTGGATGGCATCTGACGGAGTCACCTAGTGCAG”: 9180 fluorescence intensity (a.u.). With “ATGCGATTTTTTTCTTACCTTAACTGCAGACAATTAGTTACGGAGTCACCTAGTGCAG”, the binding signal is 9460 fluorescence intensity (a.u.).
